Test results as given in patent US20210355446A1.
No constants are given. Whether binding was seen depends on the method and setting. Some binding calls cover weakened binding; strength is not graded here.

Protein sequences, listed by entry. Tags and fused reporters are not part of them. Lines headed by an entry give the natural chain unless they say otherwise; changes in a name come on top.
UniProt O43653: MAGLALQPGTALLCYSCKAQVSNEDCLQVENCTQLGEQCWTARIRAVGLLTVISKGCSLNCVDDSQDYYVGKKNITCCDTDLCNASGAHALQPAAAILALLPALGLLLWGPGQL

Molecular target: prostate stem cell antigen (PSCA), transgenic on PC3^PSCA-derived feeder cells (human) (UniProt O43653)
Assay: flow cytometry on PSCA-positive PC3^PSCA-derived feeder cells

binding: binds
B1: biotinylated anti-PSCA scFv (scFv(AM1)-P-BAP) (scFv, not shown: small tags and cut ends)
scFv: DAAQPARRARRTKLGTELGSQVKLQESGGGLVQPGGSLKLSCVASGFTFSSYTMSWVRRTPEKRLEWVAYIHNGGGHTYYPDTIKGRFTISRDNAKNTLFLEMSSLKSEDTAMYYCTRRMYYGNSHWYFDVWGAGTSVTVSSAKTTPPSVYGGGGSGGGGSGGGGSTNSDIVMTQSPSSLSASLGDRVTINCRTSQDISNYLNWYQLTPDGTVKLLIYYTLKLNSGVPSRFSGSGSGTDYSLTINNLEKEDFATYFCQQSKTLPWTFGGGTKLEIKRADAAPTVSGP
modifications: biotinylated (biotin acceptor peptide)
